Experimental data reported in US12251364B2, “Treating non-alcoholic steatohepatitis with cck inhibitors” (priority 2018, dated 2025).

System: mice on 75%-CDE diet (NASH, fibrosis and HCC)
Test: Prevention study: CDE diet-induced NASH in mice, proglumide in drinking water from start of diet
Type: in vivo, mouse (female C57BL/6)
Experimental: All mouse studies were performed in an ethical fashion and approved by the Institutional Animal Care and Use Committee, protocol #2016-1193 for animal research by Georgetown University. Female C57BL/6 mice (body weight of >20 g) were obtained from Charles River Laboratory (Germantown, MD). Mice were housed with five per cage with filter-top cages and housing light cycled q12 hrs; on-off. […] The first group received a modified Choline Deficient Diet with 75% Ethionine supplemented diet (CDE) as previously described by […] et al. “A modified choline-deficient, ethionine-supplemented diet reduces morbidity and retains a liver progenitor cell response in mice,” Dis Model Mech 8:1635-1641 (2015). […] The control mice received the same diet with choline. Both diets contained casein as the major source of protein and lard (saturated fat) as the primary source of fat. The diet composition is shown in Table 1 and is very similar to the Western diet (Roberts et al. “Western diet-induced hepatic steatosis and alterations in the liver transcriptome in adult Brown-Norway rats,” BMC Gastroenterol. 15:151 (2015)) where the diet consists of a high fat and high sugar and is often used in experimental animal diets to induce NAFLD. The food intake was measured by weighing food consumed to assure mice were eating equal amounts of food in each group, and animals ate ad libitum. […] Of these (N=5 each) mice were ethically euthanized and livers dissected and analyzed histologically to assess for evidence of NASH at weeks 4 and 8. […] Serum was analyzed by VRL Laboratories (Gaithersburg, MD). The following liver tests were evaluated and the normal range for mouse is shown: Alkaline phosphatase (35-275 u/L); Alanine aminotransferase, ALT (17-129 u/L); Aspartate aminotransferase, AST (46-392 u/L); and total bilirubin (0-0.9 mg/dL). […]

## CCCN(CCC)C(=O)C(CCC(=O)O)NC(=O)c1ccccc1 (stereo not drawn) [proglumide]
Between any of the treatment groups, at termination
  liver weights: no difference
proglumide-treated vs untreated water, over 12 weeks
  food intake: slightly more food; also recorded: ate more food
Week 18
  final body weight of CDE/Reg mice compared to CDE mice that received proglumide for 18 weeks: significantly lower

“Also recorded” adds a separate entry of the source.
